# PubChem BioAssay AID504774 – Drosophila RNAi Screening Center – 2011
# Assay: 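Knock-downs that shift viability of MMS-exposed cells relative to untreated ones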 (primary screen)
# Cell system: Drosophila Kc167 cells
# Reagents: long dsRNA against Drosophila genes, about 0.25 µg dsRNA per well
# Duration: about 6 days: 3 days knock-down, then 3 days with or without MMS
# Treatment: methyl methanesulphonate 0.004% (w/v) for 3 days after knock-down
# Detection: 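ATP-dependent luminescence as a measure of live cells in MMS-exposed wells, quantile normalised within each plate, with replicate values also given as a mean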
# Scale: mean viability with MMS and viability with MMS: higher = more surviving cells after MMS
# The deposit covers about 23,000 reagents; shown is a random part of those with a known target gene and a result. 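Values are quantile-normalised luminescence on an arbitrary scale; higher means more cells surviving MMS.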 Names joined by + are all predicted targets of the reagent.
gene knocked down,amplicon,mean viability with MMS,"viability with MMS, replicate 1","viability with MMS, replicate 2"
CG15208,DRSC19654,3.54e6,4.06e6,4.05e6
CG11426,DRSC11658,3.33e6,3.70e6,3.78e6
ninaC,DRSC03579,3.51e6,3.88e6,4.06e6
lncRNA:CR42862,DRSC08348,3.47e6,3.85e6,4.00e6
CG7164,DRSC03018,3.44e6,3.96e6,3.81e6
eIF2Balpha,DRSC16332,3.47e6,3.97e6,3.91e6
Parg,DRSC18696,3.55e6,4.04e6,4.03e6
CG9801,DRSC16568,3.59e6,4.06e6,4.13e6
CG9521,DRSC20196,3.48e6,3.90e6,3.98e6
Pdi,DRSC11250,3.55e6,4.04e6,4.00e6
CG10280,DRSC12133,3.58e6,4.13e6,4.00e6
CG14556,DRSC14899,3.53e6,4.06e6,3.94e6
CG34283,DRSC13313,1.76e6,4.07e6,3.79e6
inaF-B + inaF-D + inaF-C + 1 more,DRSC20342,3.46e6,3.93e6,3.91e6
AANATL3,DRSC02089,3.52e6,4.04e6,3.94e6
CG12398,DRSC19454,3.34e6,3.74e6,3.74e6
CG32110,DRSC09220,3.54e6,4.16e6,3.88e6
Smurf,DRSC07641,3.52e6,4.07e6,3.92e6
trol,DRSC17714,3.61e6,4.09e6,4.05e6
trol,DRSC17718,3.57e6,4.05e6,4.03e6
trol,DRSC18613,3.52e6,4.19e6,3.81e6
trol,DRSC18814,3.58e6,4.15e6,3.99e6
CG13954,DRSC06442,3.54e6,4.03e6,4.00e6

The list goes on; the last 5 above are carried over.
gene knocked down,amplicon,mean viability with MMS,"viability with MMS, replicate 1","viability with MMS, replicate 2"
trol,DRSC17714,3.61e6,4.09e6,4.05e6
trol,DRSC17718,3.57e6,4.05e6,4.03e6
trol,DRSC18613,3.52e6,4.19e6,3.81e6
trol,DRSC18814,3.58e6,4.15e6,3.99e6
CG13954,DRSC06442,3.54e6,4.03e6,4.00e6
CG11529,DRSC09839,3.38e6,3.72e6,3.88e6
Sprn,DRSC10132,3.59e6,4.08e6,4.03e6
Sr-CII,DRSC07557,3.62e6,3.99e6,4.29e6
CG30076,DRSC05494,3.42e6,3.90e6,3.95e6
CG14974,DRSC08433,3.56e6,4.06e6,3.99e6
Aplip1,DRSC07947,3.61e6,4.09e6,4.10e6
Aplip1,DRSC08697,3.57e6,4.05e6,4.02e6
Aplip1,DRSC21587,3.66e6,4.12e6,4.15e6
CG33702,DRSC08986,3.42e6,3.90e6,3.86e6
Prosap,DRSC06382,3.57e6,4.00e6,4.17e6
Prosap,DRSC07081,3.68e6,4.19e6,4.15e6
ea,DRSC16939,3.88e6,4.62e6,4.10e6
Samuel,DRSC02156,3.38e6,3.77e6,3.85e6
Samuel,DRSC02401,2.97e6,3.57e6,3.56e6
Samuel,DRSC02402,3.56e6,4.17e6,3.93e6
Samuel,DRSC21731,3.72e6,4.15e6,4.24e6
Samuel,DRSC23114,3.41e6,4.00e6,3.77e6
Rab4,DRSC07524,3.70e6,4.18e6,4.19e6
CG10019,DRSC00279,3.18e6,3.51e6,3.52e6
hpRNA:CR32207,DRSC09616,3.49e6,3.98e6,3.95e6
CG12923,DRSC06237,3.63e6,4.16e6,4.00e6
NdufV3,DRSC19423,3.68e6,4.18e6,4.12e6
CG14257,DRSC14752,3.57e6,4.11e6,3.98e6
ninaA,DRSC00830,3.47e6,3.64e6,4.16e6
CG12486 (retired record),DRSC09888,3.63e6,4.21e6,4.00e6
Atg7,DRSC05741,3.49e6,4.04e6,3.88e6
Atg7,DRSC06937,3.72e6,4.32e6,4.08e6
MFS16,DRSC04051,3.74e6,4.33e6,4.09e6
CG17930,DRSC15292,3.57e6,4.07e6,4.02e6
CG1416,DRSC03706,3.53e6,4.13e6,4.10e6
CG13587,DRSC04223,3.52e6,4.08e6,3.91e6
PKD,DRSC16200,3.55e6,3.85e6,4.20e6
CG13323,DRSC06360,3.46e6,3.90e6,4.05e6
CG8838,DRSC00712,3.56e6,4.16e6,3.91e6
CG33080,DRSC18080,3.50e6,4.09e6,3.87e6
CG33080,DRSC18081,3.58e6,4.15e6,3.99e6
CG33080,DRSC18285,3.77e6,3.95e6,4.63e6
CG5056,DRSC02808,3.64e6,4.00e6,4.26e6
esc,DRSC03529,3.66e6,4.08e6,4.29e6
Myo31DF,DRSC03376,3.51e6,3.96e6,4.00e6
Myo31DF,DRSC22702,3.30e6,3.85e6,3.85e6
CG33169,DRSC11853,3.72e6,4.14e6,4.19e6
CG32652 (retired record),DRSC18942,3.53e6,3.99e6,4.02e6
CG32652 (retired record),DRSC22662,3.53e6,3.86e6,4.16e6
CG32452,DRSC11581,3.49e6,3.98e6,3.95e6
CG32452,DRSC22250,3.55e6,3.98e6,4.06e6
